Test results from the supplement of paper PMC10060354, “Discovery of a small molecule ligand of FRS2 that inhibits invasion and tumor growth” (Cellular Oncology, 2022).
Many values rest on one well or one pass, so single values are uncertain.

Sequences of proteins named here, by UniProt entry; tags and fusion partners are left off. A change or cut given only in a name is not applied to a line headed by its entry.
UniProt Q8NDI1: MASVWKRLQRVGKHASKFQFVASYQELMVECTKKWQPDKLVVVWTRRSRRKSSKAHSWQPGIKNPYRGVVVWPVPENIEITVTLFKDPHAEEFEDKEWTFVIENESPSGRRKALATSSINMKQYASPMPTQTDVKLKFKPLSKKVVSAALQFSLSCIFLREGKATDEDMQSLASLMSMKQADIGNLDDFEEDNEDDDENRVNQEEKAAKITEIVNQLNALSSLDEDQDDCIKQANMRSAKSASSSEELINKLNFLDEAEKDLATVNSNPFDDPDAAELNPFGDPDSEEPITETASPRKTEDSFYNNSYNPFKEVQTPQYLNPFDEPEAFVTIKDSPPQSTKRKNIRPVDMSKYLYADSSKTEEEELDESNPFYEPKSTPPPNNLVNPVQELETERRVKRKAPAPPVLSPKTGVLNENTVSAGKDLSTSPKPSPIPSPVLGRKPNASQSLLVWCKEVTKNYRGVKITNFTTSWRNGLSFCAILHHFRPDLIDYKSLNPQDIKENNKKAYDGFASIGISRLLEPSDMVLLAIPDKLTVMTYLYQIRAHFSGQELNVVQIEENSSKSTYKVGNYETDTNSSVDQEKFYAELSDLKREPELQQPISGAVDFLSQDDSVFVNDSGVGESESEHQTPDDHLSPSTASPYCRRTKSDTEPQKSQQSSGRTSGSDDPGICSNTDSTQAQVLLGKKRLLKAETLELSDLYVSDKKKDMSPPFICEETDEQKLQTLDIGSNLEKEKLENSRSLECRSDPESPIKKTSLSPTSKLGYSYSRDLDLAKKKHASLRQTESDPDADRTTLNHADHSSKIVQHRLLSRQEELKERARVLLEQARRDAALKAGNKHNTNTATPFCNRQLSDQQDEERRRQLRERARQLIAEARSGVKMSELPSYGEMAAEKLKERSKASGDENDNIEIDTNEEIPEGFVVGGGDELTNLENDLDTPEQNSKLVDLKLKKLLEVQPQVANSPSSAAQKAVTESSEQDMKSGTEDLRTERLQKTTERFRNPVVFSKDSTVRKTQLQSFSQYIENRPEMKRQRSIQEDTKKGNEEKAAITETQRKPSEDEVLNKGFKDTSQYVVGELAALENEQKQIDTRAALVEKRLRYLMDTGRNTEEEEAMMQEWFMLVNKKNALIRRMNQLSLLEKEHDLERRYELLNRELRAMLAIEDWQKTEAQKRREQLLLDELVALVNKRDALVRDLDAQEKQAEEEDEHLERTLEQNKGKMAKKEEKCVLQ
UniProt Q9Y4F5: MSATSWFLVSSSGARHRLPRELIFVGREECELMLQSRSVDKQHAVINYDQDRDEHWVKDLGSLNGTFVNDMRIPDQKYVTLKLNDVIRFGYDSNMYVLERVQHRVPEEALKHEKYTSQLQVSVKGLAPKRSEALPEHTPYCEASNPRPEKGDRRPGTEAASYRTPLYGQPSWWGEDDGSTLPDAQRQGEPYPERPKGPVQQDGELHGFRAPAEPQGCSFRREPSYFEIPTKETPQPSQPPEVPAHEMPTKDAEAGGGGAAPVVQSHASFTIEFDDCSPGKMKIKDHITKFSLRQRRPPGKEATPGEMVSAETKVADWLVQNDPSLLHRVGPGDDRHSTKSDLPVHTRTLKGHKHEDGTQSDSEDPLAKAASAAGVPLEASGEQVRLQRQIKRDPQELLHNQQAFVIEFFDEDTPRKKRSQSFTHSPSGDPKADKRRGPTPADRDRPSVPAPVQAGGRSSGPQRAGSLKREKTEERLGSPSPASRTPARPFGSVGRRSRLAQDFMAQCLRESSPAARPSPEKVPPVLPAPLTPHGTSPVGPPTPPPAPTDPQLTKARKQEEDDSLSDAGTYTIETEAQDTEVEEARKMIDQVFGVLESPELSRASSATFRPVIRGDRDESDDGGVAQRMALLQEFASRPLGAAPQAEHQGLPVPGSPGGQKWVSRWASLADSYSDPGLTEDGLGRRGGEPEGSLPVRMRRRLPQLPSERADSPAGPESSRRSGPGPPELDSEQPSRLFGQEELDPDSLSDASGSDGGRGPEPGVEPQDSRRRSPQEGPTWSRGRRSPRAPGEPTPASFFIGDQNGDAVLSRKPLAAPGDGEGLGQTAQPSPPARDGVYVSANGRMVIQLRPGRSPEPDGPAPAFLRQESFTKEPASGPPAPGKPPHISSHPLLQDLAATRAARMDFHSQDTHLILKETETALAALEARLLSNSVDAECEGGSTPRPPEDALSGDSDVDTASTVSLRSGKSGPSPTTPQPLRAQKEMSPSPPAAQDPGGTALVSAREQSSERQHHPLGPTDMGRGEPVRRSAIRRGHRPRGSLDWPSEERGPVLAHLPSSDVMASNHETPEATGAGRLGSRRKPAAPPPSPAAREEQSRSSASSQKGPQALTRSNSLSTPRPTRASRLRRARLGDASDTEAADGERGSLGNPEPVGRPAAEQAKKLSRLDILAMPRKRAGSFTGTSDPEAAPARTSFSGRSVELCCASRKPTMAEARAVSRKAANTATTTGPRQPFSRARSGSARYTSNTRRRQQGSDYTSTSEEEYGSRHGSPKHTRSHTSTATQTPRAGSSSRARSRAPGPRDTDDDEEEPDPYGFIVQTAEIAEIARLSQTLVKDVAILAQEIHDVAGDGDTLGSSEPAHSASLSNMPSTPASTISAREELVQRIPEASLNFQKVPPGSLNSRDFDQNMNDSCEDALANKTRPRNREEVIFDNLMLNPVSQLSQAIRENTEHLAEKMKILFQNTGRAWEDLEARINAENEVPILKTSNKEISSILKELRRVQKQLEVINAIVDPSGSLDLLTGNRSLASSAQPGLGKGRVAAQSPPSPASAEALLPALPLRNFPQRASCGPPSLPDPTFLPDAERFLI
UniProt Q8TB72: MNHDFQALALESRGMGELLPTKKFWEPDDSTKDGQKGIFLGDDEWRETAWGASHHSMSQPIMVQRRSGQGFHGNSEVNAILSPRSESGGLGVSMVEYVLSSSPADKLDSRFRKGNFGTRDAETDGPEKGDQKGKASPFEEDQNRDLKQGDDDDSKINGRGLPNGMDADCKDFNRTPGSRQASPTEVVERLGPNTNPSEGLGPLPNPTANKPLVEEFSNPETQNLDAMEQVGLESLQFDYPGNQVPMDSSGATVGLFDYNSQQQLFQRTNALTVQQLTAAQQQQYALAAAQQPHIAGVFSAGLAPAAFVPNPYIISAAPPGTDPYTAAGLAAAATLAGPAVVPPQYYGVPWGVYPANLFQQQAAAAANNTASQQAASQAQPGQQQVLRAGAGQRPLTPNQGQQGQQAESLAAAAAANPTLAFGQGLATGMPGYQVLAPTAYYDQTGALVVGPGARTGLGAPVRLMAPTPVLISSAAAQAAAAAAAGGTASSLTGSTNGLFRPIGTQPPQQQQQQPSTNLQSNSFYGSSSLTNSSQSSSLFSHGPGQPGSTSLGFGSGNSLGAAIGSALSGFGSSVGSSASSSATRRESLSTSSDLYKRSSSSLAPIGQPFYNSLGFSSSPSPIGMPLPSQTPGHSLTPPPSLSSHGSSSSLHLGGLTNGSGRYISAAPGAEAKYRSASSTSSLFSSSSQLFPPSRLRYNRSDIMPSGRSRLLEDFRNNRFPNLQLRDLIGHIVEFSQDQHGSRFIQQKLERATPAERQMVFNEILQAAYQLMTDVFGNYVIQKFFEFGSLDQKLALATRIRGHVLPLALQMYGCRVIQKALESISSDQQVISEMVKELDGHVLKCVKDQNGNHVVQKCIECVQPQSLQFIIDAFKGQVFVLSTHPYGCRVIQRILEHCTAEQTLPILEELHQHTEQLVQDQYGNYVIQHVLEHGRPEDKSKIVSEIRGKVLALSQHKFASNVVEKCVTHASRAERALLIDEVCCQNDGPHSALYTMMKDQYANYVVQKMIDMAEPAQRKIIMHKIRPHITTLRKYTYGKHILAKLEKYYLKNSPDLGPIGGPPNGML
UniProt Q96PC3: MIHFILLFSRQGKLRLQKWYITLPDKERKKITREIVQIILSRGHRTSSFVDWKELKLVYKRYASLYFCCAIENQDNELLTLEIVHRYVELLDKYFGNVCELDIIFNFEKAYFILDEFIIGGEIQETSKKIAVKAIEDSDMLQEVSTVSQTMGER
UniProt Q9NZ43: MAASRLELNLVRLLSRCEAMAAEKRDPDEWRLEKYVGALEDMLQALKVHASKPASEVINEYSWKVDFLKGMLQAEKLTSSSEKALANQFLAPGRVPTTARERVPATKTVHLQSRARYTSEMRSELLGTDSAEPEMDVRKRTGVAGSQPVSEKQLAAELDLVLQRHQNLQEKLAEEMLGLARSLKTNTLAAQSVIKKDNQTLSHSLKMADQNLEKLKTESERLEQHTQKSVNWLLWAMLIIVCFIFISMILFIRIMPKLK
UniProt Q6NXT6: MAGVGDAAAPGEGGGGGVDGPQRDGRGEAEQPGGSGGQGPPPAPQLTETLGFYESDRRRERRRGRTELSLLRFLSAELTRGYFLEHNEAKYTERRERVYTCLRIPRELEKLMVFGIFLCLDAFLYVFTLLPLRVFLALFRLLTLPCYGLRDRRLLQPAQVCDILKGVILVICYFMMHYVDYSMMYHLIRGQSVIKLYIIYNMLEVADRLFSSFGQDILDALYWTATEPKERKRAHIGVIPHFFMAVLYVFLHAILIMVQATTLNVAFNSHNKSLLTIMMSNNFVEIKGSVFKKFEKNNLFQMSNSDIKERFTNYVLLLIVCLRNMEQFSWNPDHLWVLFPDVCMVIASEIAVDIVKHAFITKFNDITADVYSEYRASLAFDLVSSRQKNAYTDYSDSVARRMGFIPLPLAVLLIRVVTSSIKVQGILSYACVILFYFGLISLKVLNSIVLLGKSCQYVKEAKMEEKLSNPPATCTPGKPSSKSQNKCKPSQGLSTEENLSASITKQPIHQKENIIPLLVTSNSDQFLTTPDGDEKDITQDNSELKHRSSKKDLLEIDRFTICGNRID
UniProt Q9H0V9: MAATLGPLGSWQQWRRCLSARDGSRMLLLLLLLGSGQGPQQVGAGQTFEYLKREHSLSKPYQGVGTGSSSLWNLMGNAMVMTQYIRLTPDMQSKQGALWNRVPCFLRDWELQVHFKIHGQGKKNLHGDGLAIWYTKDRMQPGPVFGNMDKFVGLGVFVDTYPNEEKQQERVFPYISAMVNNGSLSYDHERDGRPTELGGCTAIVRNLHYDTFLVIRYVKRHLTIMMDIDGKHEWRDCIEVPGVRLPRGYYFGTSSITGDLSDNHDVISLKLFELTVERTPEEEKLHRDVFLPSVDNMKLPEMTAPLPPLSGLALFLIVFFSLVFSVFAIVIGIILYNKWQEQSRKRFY
UniProt Q8TF09, whole entry: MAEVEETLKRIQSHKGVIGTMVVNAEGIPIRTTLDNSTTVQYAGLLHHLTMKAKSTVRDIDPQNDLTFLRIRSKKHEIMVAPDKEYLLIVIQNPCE
UniProt P78345: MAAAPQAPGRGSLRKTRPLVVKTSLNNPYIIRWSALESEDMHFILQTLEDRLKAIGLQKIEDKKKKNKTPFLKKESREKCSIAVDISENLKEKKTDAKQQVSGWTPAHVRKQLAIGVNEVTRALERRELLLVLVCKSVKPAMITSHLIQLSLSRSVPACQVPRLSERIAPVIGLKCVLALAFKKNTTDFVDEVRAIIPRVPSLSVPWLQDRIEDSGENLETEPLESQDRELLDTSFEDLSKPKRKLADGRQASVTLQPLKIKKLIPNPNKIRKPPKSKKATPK
UniProt Q8N6M0: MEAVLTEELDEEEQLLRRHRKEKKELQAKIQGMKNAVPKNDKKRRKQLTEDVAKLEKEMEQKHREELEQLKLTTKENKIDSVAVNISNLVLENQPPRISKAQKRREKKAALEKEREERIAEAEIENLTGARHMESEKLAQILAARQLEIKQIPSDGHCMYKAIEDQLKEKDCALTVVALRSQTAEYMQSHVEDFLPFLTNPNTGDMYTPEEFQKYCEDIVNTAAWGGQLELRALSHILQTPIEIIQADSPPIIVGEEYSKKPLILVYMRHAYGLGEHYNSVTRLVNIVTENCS
UniProt Q9UBK8: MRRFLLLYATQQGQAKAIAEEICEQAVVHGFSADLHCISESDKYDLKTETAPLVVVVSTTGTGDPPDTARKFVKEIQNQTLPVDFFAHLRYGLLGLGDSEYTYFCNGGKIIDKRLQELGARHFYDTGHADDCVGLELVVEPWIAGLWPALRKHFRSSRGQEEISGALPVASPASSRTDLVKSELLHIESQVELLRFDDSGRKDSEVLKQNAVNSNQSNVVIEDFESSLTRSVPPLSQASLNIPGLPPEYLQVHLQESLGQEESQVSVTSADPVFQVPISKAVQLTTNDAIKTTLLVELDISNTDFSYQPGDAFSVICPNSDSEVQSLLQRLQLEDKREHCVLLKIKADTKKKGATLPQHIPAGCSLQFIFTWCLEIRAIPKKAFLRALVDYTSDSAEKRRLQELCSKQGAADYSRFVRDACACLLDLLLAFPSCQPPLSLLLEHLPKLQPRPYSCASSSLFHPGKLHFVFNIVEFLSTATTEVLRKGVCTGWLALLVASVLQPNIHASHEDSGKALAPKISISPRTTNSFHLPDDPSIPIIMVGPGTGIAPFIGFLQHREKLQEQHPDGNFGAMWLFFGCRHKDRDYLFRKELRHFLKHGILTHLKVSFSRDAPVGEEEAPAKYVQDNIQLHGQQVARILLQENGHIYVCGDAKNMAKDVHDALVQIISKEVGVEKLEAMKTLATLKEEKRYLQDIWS

Compound: [O-][N+](C(C1=C(C(O)=C2)NC(C(C=C3)=CC=C3Cl)C4C1C=CC4)=C2Cl)=O
Test: melting temperature shift (compound 7 minus DMSO); higher = compound stabilises the protein
Conditions: 10 µM
Description: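 Thermal proteome profiling (TMT mass spectrometry) in intact DAOY medulloblastoma cells or DAOY lysates treated with 10 µM compound 7 or DMSO, heated at 10 temperatures from 40.5 to 73.8 °C for 3 min. Melting curves were fitted with the Bioconductor TPP package, and the melting point difference between compound and vehicle is reported per protein (single curve per condition).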

[1] = system: DAOY cell lysate, treatment time: 20 min, 4 °C
[2] = system: intact DAOY cells, treatment time: 90 min, 37 °C

| Target | melting temperature shift [1] [°C] | melting temperature shift [2] [°C] |
| --- | --- | --- |
| EHBP1 (UniProt Q8NDI1) | -0.341 | -0.13 |
| KIAA0930 (UniProt Q6ICG6) | -1.12 |  |
| VPS26B (UniProt Q4G0F5) | -0.164 | 0.395 |
| CEP170B (UniProt Q9Y4F5) |  | 0.719 |
| DNPEP (UniProt Q9ULA0) | -0.868 | -2.36 |
| HIRIP3 (UniProt Q9BW71) | 1.41 | 4.6 |
| CTSC (UniProt P53634) | -1.6 | -0.403 |
| LRRC16A (UniProt Q5VZK9) | -0.498 | 0.945 |
| CTSL (UniProt P07711) | -0.603 | -0.0645 |
| TMEM30A (UniProt Q9NV96) |  | -0.525 |
| SLC30A9 (UniProt Q6PML9) | -2.05 | -1.62 |
| PUM2 (UniProt Q8TB72) | 1.73 | 1.75 |
| PPP4R3B (UniProt Q5MIZ7) | -0.615 | -0.623 |
| UniProt Q96PC3 |  | -0.554 |
| RAC1 (UniProt P63000) | 0.414 | 0.205 |
| APH1A (UniProt Q96BI3) | 0.144 | -2.35 |
| RBM22 (UniProt Q9NW64) | 0.42 | -0.796 |
| NSMAF (UniProt Q92636) | 0.0856 |  |
| BRD8 (UniProt Q9H0E9) | -0.515 | 1.35 |
| SNRNP40 (UniProt Q96DI7) | -0.00863 | 1.49 |
| ZC3H11A (UniProt O75152) | -0.00121 | -3.61 |
| ENAH (UniProt Q8N8S7) | -0.638 | -0.34 |
| PTAR1 (UniProt Q7Z6K3) | -0.847 | 0.47 |

A portion of the results above:

| Target | melting temperature shift [1] [°C] | melting temperature shift [2] [°C] |
| --- | --- | --- |
| PUM2 (UniProt Q8TB72) | 1.73 | 1.75 |
| PPP4R3B (UniProt Q5MIZ7) | -0.615 | -0.623 |
| UniProt Q96PC3 |  | -0.554 |
| RAC1 (UniProt P63000) | 0.414 | 0.205 |
| APH1A (UniProt Q96BI3) | 0.144 | -2.35 |

Next part.

| Target | melting temperature shift [1] [°C] | melting temperature shift [2] [°C] |
| --- | --- | --- |
| NDUFB11 (UniProt Q9NX14) | 2.19 |  |
| UniProt Q8WYP5 | 2.26 | 0.878 |
| NVL (UniProt O15381) | -0.346 |  |
| EXOC5 (UniProt O00471) | -0.347 | -1.2 |
| USE1 (UniProt Q9NZ43) | 1.91 | -0.00681 |
| UniProt O43422 | -1.4 | -1.24 |
| ADSSL1 (UniProt Q8N142) |  | 0.14 |
| TAPT1 (UniProt Q6NXT6) | 2.01 | -0.466 |
| UniProt Q96LZ2 |  | -0.428 |
| UniProt Q9Y689 |  | -2.05 |
| UniProt P53805 | -0.588 |  |
| SSU72 (UniProt Q9NP77) | -1.05 | 0.867 |
| HDDC3 (UniProt Q8N4P3) |  | 1.67 |
| RPRD1A (UniProt Q96P16) | -0.32 | -2.03 |
| RPL27A (UniProt P46776) | 1.35 | -0.293 |
| FMNL1 (UniProt O95466) | -0.769 |  |
| OSTF1 (UniProt Q92882) | -0.115 | -0.266 |
| SQLE (UniProt Q14534) | 1.07 | 0.253 |
| UniProt O14965 | -0.425 | 0.906 |
| UniProt Q9Y6E0 | -0.502 | 0.38 |
| UniProt Q9UGI9 |  | -1.56 |
| FAF1 (UniProt Q9UNN5) | -0.726 | 0.684 |
| MBOAT7 (UniProt Q96N66) | -0.778 | -5.25 |

| Target | melting temperature shift [1] [°C] | melting temperature shift [2] [°C] |
| --- | --- | --- |
| EXOSC8 (UniProt Q96B26) | 0.0522 | -0.607 |
| PDXK (UniProt O00764) | -0.811 | -0.352 |
| QTRT1 (UniProt Q9BXR0) | -2.32 | -0.148 |
| MSN (UniProt P26038) | -0.0561 | 0.223 |
| MYL6 (UniProt P60660) | -4.61 | -0.23 |
| PDHX (UniProt O00330) | 0.621 | 1.08 |
| HS2ST1 (UniProt Q7LGA3) | 1.74 | 0.132 |
| SLC4A1AP (UniProt Q9BWU0) | -0.461 | -0.529 |
| UniProt Q68D10 | -0.365 |  |
| UniProt P62491 | 0.64 | 2.38 |
| UniProt P05787 | -1.47 | 2.17 |
| APEH (UniProt P13798) | -0.932 | 0.419 |
| MRPL20 (UniProt Q9BYC9) | 0.837 | -1.17 |
| BLMH (UniProt Q13867) | -0.234 | 3.97 |
| IFRD1 (UniProt O00458) | -0.413 | -1.14 |
| ANXA4 (UniProt P09525) | -0.0203 | 0.371 |
| LMAN2L (UniProt Q9H0V9) | 1 | -0.957 |
| UniProt Q8IVS2 | 1.21 | 1.44 |
| MRPS9 (UniProt P82933) | 1 | -0.929 |
| UniProt Q86U42 | 0.117 | -0.208 |
| RTN4RL2 (UniProt Q86UN3) |  | -1.48 |
| RPL29 (UniProt P47914) |  | -0.769 |
| FAM160B1 (UniProt Q5W0V3) | -1.48 | 0.812 |

| Target | melting temperature shift [1] [°C] | melting temperature shift [2] [°C] |
| --- | --- | --- |
| OXCT1 (UniProt P55809) | 0.191 | 0.157 |
| ZFC3H1 (UniProt O60293) | 0.19 |  |
| ANKHD1 (UniProt Q8IWZ3) | 0.187 | 0.538 |
| SUGT1 (UniProt Q9Y2Z0) | -1.24 | 0.797 |
| HARS (UniProt P12081) | -0.592 | -1.53 |
| RINT1 (UniProt Q6NUQ1) | -0.195 | -0.955 |
| ATP6AP2 (UniProt O75787) | 0.655 | -0.338 |
| UniProt P12111 | 0.9 | 0.325 |
| PRKRIP1 (UniProt Q9H875) | 0.174 |  |
| PRKACB (UniProt P22694) | 0.378 | -0.481 |
| IFI16 (UniProt Q16666) | 0.788 | -0.245 |
| UniProt Q5TEC6 |  | -0.0663 |
| UniProt Q8TF09 |  | -1.51 |
| NFAT5 (UniProt O94916) | 1.51 |  |
| RAD54L2 (UniProt Q9Y4B4) | 2.77 |  |
| PA2G4 (UniProt Q9UQ80) | -0.424 | -0.393 |
| UniProt O60512 |  | 0.595 |
| SNX4 (UniProt O95219) | -0.638 | -1.09 |
| UniProt Q9HC77 | -0.708 | 0.0891 |
| NNT (UniProt Q13423) | 0.245 | -0.313 |
| SNW1 (UniProt Q13573) | -0.265 | 0.124 |
| GINS4 (UniProt Q9BRT9) | -1.16 | 0.648 |
| UniProt P37275 | 2.47 |  |

| Target | melting temperature shift [1] [°C] | melting temperature shift [2] [°C] |
| --- | --- | --- |
| KIAA0101 (UniProt Q15004) | 1.85 |  |
| RPP38 (UniProt P78345) | -1.45 | -0.426 |
| UniProt Q6DHV7 |  | -3.55 |
| EIF4G1 (UniProt Q04637) | -0.737 | -0.874 |
| TIMP1 (UniProt P01033) | 0.795 |  |
| UniProt Q86Y97 | 0.341 |  |
| UniProt Q9H0Q0 |  | -0.345 |
| IARS2 (UniProt Q9NSE4) | 0.545 | -0.693 |
| UniProt Q86W74 |  | -0.868 |
| DOPEY2 (UniProt Q9Y3R5) | -0.409 |  |
| UniProt Q8WTZ3 | 0.11 |  |
| BCL7C (UniProt Q8WUZ0) |  | 1.17 |
| EIF3F (UniProt O00303) | -0.807 | 0.243 |
| UniProt Q9Y519 |  | -0.615 |
| OTUD6B (UniProt Q8N6M0) | -0.465 | 0.318 |
| MAP1S (UniProt Q66K74) | 0.407 | -0.124 |
| NME7 (UniProt Q9Y5B8) | -0.548 | -0.512 |
| FLYWCH2 (UniProt Q96CP2) | 4.9 |  |
| MRPS30 (UniProt Q9NP92) | 0.0673 | -1.43 |
| MTRR (UniProt Q9UBK8) | -0.16 |  |
| L2HGDH (UniProt Q9H9P8) | 1.34 | 1.65 |
| RALGAPB (UniProt Q86X10) | 0.545 | 1.66 |
